Data taken from article PMC6028644.

Biological target: Flag-tagged full-length TMUB1 (pcDNA-FLAG-Tmub1, amino acids 1-245) (rat)
Assay: co-IP; BRL-3A transfected with Flag-tagged full-length TMUB1 or deletion mutants; beads with anti-Flag antibody, blot anti-CAML, and beads with anti-CAML antibody, blot anti-Flag; lysis buffer 20 mM Tris-HCl pH 7.5, 500 mM NaCl, 2% Triton X-100; overnight at 4 °C

B1: calcium-modulating cyclophilin ligand (CAML), endogenous in BRL-3A rat hepatocytes (protein, UniProt Q6DGG9 1-295)
chain: MEPMPSATDGGDRSATPSGLSASQRRAELRRRKLLMNSEQRINRIMGFHRPGSGAEEENQTKSKPLDSDILNPLGVPSVSKRVVLGDSVDGGVTDYQPSGGADIRGAQLGDKLDSFIKAPECSSKDGVELRQRNRGDLTADSAPRGSHHGLEQYLSRFEEAMKLRKQLISEKPSQEDGRTTEEFDSFRIFRLVGCALLALVVRAFVCKYLSIFAPFLTLQLAYMGLYKYFPKGEKKVKTTVLTAALLLSGIPAEVINRSMDTYSKMGEVFTDLCVYFFTFIFCHEVLEYWGPEVP
- binding: binds

Results are given in words; binding and its absence hold for the method and conditions named. Binding seen in cells or lysates may run through a third protein. Binding calls can cover weak binding; strength is not graded here.
